Test system: SARS-CoV-2
Test: Determination of antiviral efficacy in high-content imaging assay in Vero E6 cells infected with SARS-CoV-2 (USA-WA1/2020 isolate) at MOI 0.75 after 24 hrs
Type: functional, organism-based, Chlorocebus sabaeus
Settings: Severe acute respiratory syndrome coronavirus 2, Vero C1008, 24 h

COc1ccc(CCN2CCC(Nc3nc4ccccc4n3Cc3ccc(F)cc3)CC2)cc1 [ASTEMIZOLE]
EC50: 1100 nM

— ChEMBL document CHEMBL4303082, “A Large-scale Drug Repositioning Survey for SARS-CoV-2 Antivirals” (2020)
